The values below come from paper PMC10173003.

Test [1] concerns the target T1, cYFP-tagged SOQ1 (full-length SOQ1 in pUC-SPYCE) (Arabidopsis thaliana) (UniProt Q8VZ10).
T1 sequence: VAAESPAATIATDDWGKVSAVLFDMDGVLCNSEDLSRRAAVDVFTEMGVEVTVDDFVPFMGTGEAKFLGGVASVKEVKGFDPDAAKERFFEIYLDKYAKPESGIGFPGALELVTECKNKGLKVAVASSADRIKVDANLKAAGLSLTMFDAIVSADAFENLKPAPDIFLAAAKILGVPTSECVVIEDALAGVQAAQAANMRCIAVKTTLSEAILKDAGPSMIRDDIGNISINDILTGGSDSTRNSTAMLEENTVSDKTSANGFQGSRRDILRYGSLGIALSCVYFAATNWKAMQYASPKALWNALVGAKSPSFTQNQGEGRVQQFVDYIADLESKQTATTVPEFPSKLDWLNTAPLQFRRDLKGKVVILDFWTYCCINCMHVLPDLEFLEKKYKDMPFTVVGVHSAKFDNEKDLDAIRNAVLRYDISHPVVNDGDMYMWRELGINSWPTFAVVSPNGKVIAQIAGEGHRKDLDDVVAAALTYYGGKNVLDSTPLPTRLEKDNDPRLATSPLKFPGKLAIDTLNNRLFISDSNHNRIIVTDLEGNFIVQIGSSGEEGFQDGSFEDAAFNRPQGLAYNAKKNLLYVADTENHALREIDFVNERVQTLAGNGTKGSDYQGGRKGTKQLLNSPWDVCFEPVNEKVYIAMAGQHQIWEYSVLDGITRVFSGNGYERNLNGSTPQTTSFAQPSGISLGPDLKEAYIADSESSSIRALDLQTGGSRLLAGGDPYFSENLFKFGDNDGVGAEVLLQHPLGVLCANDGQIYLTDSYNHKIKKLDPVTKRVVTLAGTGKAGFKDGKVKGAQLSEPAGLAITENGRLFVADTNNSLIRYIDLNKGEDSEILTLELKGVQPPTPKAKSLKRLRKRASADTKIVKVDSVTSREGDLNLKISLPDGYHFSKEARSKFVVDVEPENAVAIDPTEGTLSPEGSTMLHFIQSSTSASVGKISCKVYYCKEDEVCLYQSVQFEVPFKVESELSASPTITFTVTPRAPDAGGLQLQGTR
The test is described as follows: split reporter; BiFC: nYFP and cYFP fusions (pUC-SPYNE, pUC-SPYCE) cotransformed into Arabidopsis mesophyll protoplasts; confocal microscopy.

Test [2] concerns the target T2, SOQ1-FLAG (35S:SOQ1-FLAG) (Arabidopsis thaliana) (UniProt Q8VZ10).
T2 sequence: T1 sequence
The experiment in a line: co-IP; protoplasts of 25-day-old transgenic plants expressing SOQ1-FLAG, transformed with HHL1-nYFP (MYC tag) or HHL1-NVWA-nYFP; anti-FLAG precipitation as for the seedlings.

In test [3] the target is T2, SOQ1-FLAG (35S:SOQ1-FLAG) (Arabidopsis thaliana). The test is described as follows: co-IP; total proteins of 10-day-old transgenic seedlings expressing SOQ1-FLAG and purified His-HHL1; anti-FLAG M2 affinity gel, 3 h at 4 °C, IP buffer 10 mM Hepes pH 7.5, 150 mM NaCl, 1 mM EDTA, 10% glycerol, 0.5% Triton X-100; eluted with 3x Flag peptide; blot with anti-HHL1; only the binder purified.

No constants are given. Whether binding was seen depends on the method and setting. In cells and extracts the contact can be indirect. Some results given as binding are weak or reduced against the parent protein; the word gives no strength. Where a sequence is shown, tags or fusion partners need not be part of it.

B1: nYFP-tagged HHL1 (full-length HHL1 in pUC-SPYNE) (protein, UniProt Q8LDL0 40-231)
chain: ETAVQQRRMVFVVEAKGKKGMAARQYQRTPPPMPKIEDDGNPRFVIFIRMANVYLWYPLSIIAGGTTAKIMVAAKDNLLGKYIYKDTIARNIAAVIYRDEKEIQKTAIKQHRVLRTATEFRYGYKLVENGNMRAALSTSDVIELPTQDQLKTVFDKVKDYFGDAKESFGKLSSLNPGSDEKTEETSDEKAKA
For B1, the binding entry in test [1] and in test [2] was “binds” in each case.

B2: purified His-HHL1 fusion protein (protein, UniProt Q8LDL0 40-231)
chain: B1 chain
Regarding B2, the binding entry in test [3] is “binds”.

B3: HHL1-NVWA-nYFP (HHL1 lacking the von Willebrand factor type A domain) (protein, UniProt Q8LDL0)
chain: ETAVQQRRMVFVVEAKGKKGMAARQYQRTPPPMPKIEDDGNPRFVIFIRMANVYLWYPLSFRYGYKLVENGNMRAALSTSDVIELPTQDQLKTVFDKVKDYFGDAKESFGKLSSLNPGSDEKTEETSDEKAKA
As for B3, the binding result in test [1] is recorded as “no binding”.
